{"source": "paper PMC2481268", "binders": {"B1": {"name": "Tata binding protein ABT1 (ABT1), GAL4 AD clone (domain or fragment, UniProt Q9QYL7 20-269)", "chain": "NAEAAEDQEEPEDTACSSSSKKKKKVVPGIVYLGHVPPRFRPLHVRNLLSAYGEVGRVFFQAEDHFVKRKKKAAAAAGGKKGAKYSKDYTEGWVEFRDKRVAKRVAASLHNTPMGARKRSPFRYDLWNLKYLHRFTWSHLSEHLAFERQVRRQRLRAEVAQAKRETDFYLRNVEQGQHFLAADGDATRPNSSWTFTQRPTEQEFRARKAARPGGRERARLANVEDQARSNRGLLAKIFGAPLPAESKEKP"}, "B2": {"name": "Ankyrin rep domain 49 (Ankrd49), GAL4 AD clone (domain or fragment, UniProt Q8VE42 6-190)", "chain": "KDDEKPDLENSVDFSEQFNQLELLKTHGHLIPTGTQSLWVGNSDEDEEQEEKNEEWYQLQEKKMEKDPSKLLLWAAEKNRLATVQRLLSEKAAEVNTRDEDEYTPLHRAAYSGHIDVVRELVAKGADVHAVTVDGWTPLHSACKWNNTKVASFLLQHDADINAQTKGLLTPLHLAAGNRDSRDTL"}, "B3": {"name": "B-Activating transcription factor (B-ATF), GAL4 AD clone (protein, UniProt O35284 1-120)", "chain": "MPHSSDSSDSSFSRSPPPGKQDSSDDVRKVQRREKNRIAAQKSRQRQTQKADTLHLESEDLEKQNAALRKEIKQLTEELKYFTSVLSSHEPLCSVLASGTPSPPEVVYSAHAFHQPHISS"}, "B4": {"name": "Bromodomain adjacent to zinc finger domain, 2B (Baz2b), GAL4 AD clone (domain or fragment, UniProt A2AUY4-1 615-883)", "chain": "TEGEKPAVNLTQTSSSAKSPPSSLTAHSAPHLHIGSPPGSAPAALCSESQPPAFLGTSSSTLTSTPHSGTSKRRRVADDQELRIPLDYGWQRETRVRNFGGRLPGEVAYYAPCGKKLRQCPDMVKGMQWCLLKEEDVIPRIRAMDGRRGRPPNPDRPRAREESRMKRRKGRPPNVGSAEFLDNTDAKLLRKLQAQEIARQAAQIKLLRKLQKQEQARVAKEAKKQQAIMAAEEKRKQKEQMKIIKQQEKIKRIQQIRMEKELRAQQILE"}, "B5": {"name": "Step II Splicing factor SLU7, GAL4 AD clone (domain or fragment, UniProt Q8BHJ9 27-585)", "chain": "KMTREDWRKKKELEEQRKLGNAPAEVDEEGKDINPHIPQYISSVPWYIDPSKRPTLKHQRPQPEKQKQFSSSGEWYKRGVKENSITTKYRKGACENCGAMTHKRKDCFERPRRVGAKFTGTNIAPDEHVQPQLMFDYDGKRDRWNGYNPEEHMKIVEEYAKVDLAKRTLKAQKLQEELASGKLVEQANSPKHQWGEEEPNSQMEKDHNSEDEDEDKYADDIDMPGQNFDSKRRITVRNLRIREDIAKYLRNLDPNSAYYDPKTRAMRENPYANAGKNPDEVSYAGDNFVRYTGDTISMAQTQLFAWEAYDKGSEVHLQADPTKLELLYKSFKVKKEDFKEQQKESILEKYGGQEHLDAPPAELLLAQTEDYVEYSRHGTVIKGQERAVACSKYEEDVKINNHTHIWGSYWKEGRWGYKCCHSFFKYSYCTGEAGKESVNSEECIITGATAEESVKKPQALLELHQEKLKEEKKKKKKKKKHRKSSSDSDDEERKQEKLKKALNAEEARLLHVKEIMQIDERKRPYNSIYETREPTEEEMEAYRMKRQRPDDPMASFLGQ"}, "B6": {"name": "Splicing factor 3a, subunit 3 (SF3a3), GAL4 AD clone (domain or fragment, UniProt Q9D554 318-501)", "chain": "KDIAFLEAQIYEYVEILGEQRQLTHENVQRKQARTGEEREEEEEEQISESESEDEENEIIYNPKNLPLGWDGKPIPYWLYKLHGLNINYNCEICGNYTYRGPKAFQRHFAEWRHAHGMRCLGIPNTAHFANVTQIEDAVSLWAKLKLQKASERWQPDTEEEYEDSSGNVVNKKTYEDLKRQGLL"}, "B7": {"name": "U2 auxiliary factor 26 (U2AF^26), GAL4 AD clone (domain or fragment, UniProt Q8BGJ9 53-220)", "chain": "RNPQNTAQTADGSHCHVSDVEVQEHYDNFFEEVFTELQEKYGEIEEMNVCDNLGDHLVGNVYVKFRREEDAERAVAELNNRWFNGQAVHAELSPVTDFRESCCRQYEMGECTRGGFCNFMHLRPISRNLRRQLYGRGPRHRSPPRSHTGHRPRERNRRRSPDHRHGRF"}, "B8": {"name": "U5 small nuclear ribonucleoprotein (U5 snRNP), GAL4 AD clone (domain or fragment, UniProt Q6P4T2 1939-2136)", "chain": "ALAAMELAQMVTQAMWSKDSYLKQLPHFTSEHIKRCTDKGVESVFDIMEMEDEERNALLQLTDSQIADVARFCNRYPNIELSYEVVDKDSIRSGGPVVVLVQLEREEEVTGPVIAPLFPQKREEGWWVVIGDAKSNSLISIKRLTLQQKAKVKLDFVAPATGGHNYTLYFMSDAYMGCDQEYKFSVDVKEAETDSDSD"}, "B9": {"name": "GST-Ankrd49 (two-hybrid insert in pGEX2TPL) (domain or fragment, UniProt Q8VE42 6-190)", "chain": "B2 chain"}, "B10": {"name": "GST-Baz2b (two-hybrid insert in pGEX2TPL) (domain or fragment, UniProt A2AUY4-1 615-883)", "chain": "B4 chain"}, "B11": {"name": "GST-U2AF^26 (two-hybrid insert in pGEX2TPL) (domain or fragment, UniProt Q8BGJ9 53-220)", "chain": "B7 chain"}, "B12": {"name": "GST-SF3a3 (two-hybrid insert in pGEX2TPL) (domain or fragment, UniProt Q9D554 318-501)", "chain": "B6 chain"}, "B13": {"name": "GST-U5snRNP (two-hybrid insert in pGEX2TPL) (domain or fragment, UniProt Q6P4T2 1939-2136)", "chain": "B8 chain"}}, "note": "These are yes or no findings as the source states them, for the method shown. Binding calls can cover weak binding; strength is not graded here. Tags and fused reporters may be left off the sequences shown. For part of these data: In cells and extracts the contact can be indirect."}
{"target": "lexA-HIV-1 integrase fusion (pSH2-hIN) (HIV-1)", "assay": "two-hybrid; lexA fusions (pSH2-1 or pNlexA) as baits and GAL4 AD fusions (pGADNOT or pACT2) in S. cerevisiae CTY10-5d; qualitative X-gal colony lift assay (lexAop-lacZ) at 30°C"}
{"binder": "B1", "binding": "binds"}
{"binder": "B2", "binding": "binds"}
{"binder": "B3", "binding": "binds weakly"}
{"binder": "B4", "binding": "binds"}
{"binder": "B5", "binding": "binds"}
{"binder": "B6", "binding": "binds"}
{"binder": "B7", "binding": "binds"}
{"binder": "B8", "binding": "binds weakly"}
{"target": "MoMLV integrase-lexA fusion (mIN-pNlexA) (Moloney murine leukemia virus)", "assay": "two-hybrid; lexA fusions (pSH2-1 or pNlexA) as baits and GAL4 AD fusions (pGADNOT or pACT2) in S. cerevisiae CTY10-5d; qualitative X-gal colony lift assay (lexAop-lacZ) at 30°C"}
{"binder": "B1", "binding": "binds"}
{"binder": "B2", "binding": "no binding"}
{"binder": "B3", "binding": "binds"}
{"binder": "B4", "binding": "binds"}
{"binder": "B5", "binding": "binds"}
{"binder": "B6", "binding": "binds"}
{"binder": "B7", "binding": "binds"}
{"binder": "B8", "binding": "no binding"}
{"target": "lexA-MoMLV integrase fusion (pSH2-mIN) (Moloney murine leukemia virus)", "assay": "two-hybrid; lexA fusions (pSH2-1 or pNlexA) as baits and GAL4 AD fusions (pGADNOT or pACT2) in S. cerevisiae CTY10-5d; qualitative X-gal colony lift assay (lexAop-lacZ) at 30°C"}
{"binder": "B1", "binding": "binds"}
{"binder": "B2", "binding": "binds"}
{"binder": "B3", "binding": "binds"}
{"binder": "B4", "binding": "binds"}
{"binder": "B5", "binding": "binds"}
{"binder": "B6", "binding": "binds"}
{"binder": "B7", "binding": "binds"}
{"binder": "B8", "binding": "binds"}
{"target": "GAL4 DNA binding domain-HIV-1 integrase fusion (pGBKT7-hIN) (HIV-1)", "assay": "two-hybrid; GAL4 DNA binding domain fusions (pGBKT7) and GAL4 AD fusions in S. cerevisiae SFY526; qualitative colony lift assay (GAL1-lacZ)"}
{"binder": "B1", "binding": "no binding"}
{"binder": "B2", "binding": "binds weakly"}
{"binder": "B3", "binding": "no binding"}
{"binder": "B4", "binding": "no binding"}
{"binder": "B5", "binding": "no binding"}
{"binder": "B6", "binding": "no binding"}
{"target": "GAL4 DNA binding domain-MoMLV integrase fusion (pGBKT7-mIN) (Moloney murine leukemia virus)", "assay": "two-hybrid; GAL4 DNA binding domain fusions (pGBKT7) and GAL4 AD fusions in S. cerevisiae SFY526; qualitative colony lift assay (GAL1-lacZ)"}
{"binder": "B1", "binding": "binds"}
{"binder": "B2", "binding": "no binding"}
{"binder": "B3", "binding": "no binding"}
{"binder": "B4", "binding": "no binding"}
{"binder": "B5", "binding": "no binding"}
{"binder": "B6", "binding": "no binding"}
{"binder": "B7", "binding": "no binding"}
{"binder": "B8", "binding": "no binding"}
{"target": "maltose binding protein-MoMLV integrase fusion (pmalc2-mIN) (Moloney murine leukemia virus)", "assay": "pull-down; as the MBP-GST binding assay, but each E. coli lysate treated with DNase (Turbo DNA-free) and RNase before the lysates were mixed (Figure 5)"}
{"binder": "B9", "binding": "binds"}
{"binder": "B10", "binding": "binds"}
{"binder": "B11", "binding": "binds"}
{"target": "maltose binding protein-HIV-1 integrase fusion (pmalc2-hIN) (HIV-1)", "assay": "pull-down; as the MBP-GST binding assay, but each E. coli lysate treated with DNase (Turbo DNA-free) and RNase before the lysates were mixed (Figure 5)"}
{"binder": "B9", "binding": "binds"}
{"binder": "B10", "binding": "binds"}
{"binder": "B11", "binding": "binds"}
{"target": "maltose binding protein-MoMLV integrase fusion (pmalc2-mIN) (Moloney murine leukemia virus)", "assay": "pull-down; MBP fusion lysates bound to amylose resin and washed; GST fusion E. coli lysates added, 1 h at 4°C; washed in Buffer A or C with 0.1-0.3% IGEPAL CA-630; eluted with 15 mM maltose; Western with anti-GST and anti-MBP; only the target purified"}
{"binder": "B9", "binding": "binds"}
{"binder": "B10", "binding": "binds"}
{"binder": "B12", "binding": "binds"}
{"binder": "B13", "binding": "binds"}
{"binder": "B11", "binding": "binds"}
{"target": "maltose binding protein-HIV-1 integrase fusion (pmalc2-hIN) (HIV-1)", "assay": "pull-down; MBP fusion lysates bound to amylose resin and washed; GST fusion E. coli lysates added, 1 h at 4°C; washed in Buffer A or C with 0.1-0.3% IGEPAL CA-630; eluted with 15 mM maltose; Western with anti-GST and anti-MBP; only the target purified"}
{"binder": "B9", "binding": "binds"}
{"binder": "B10", "binding": "binds"}
{"binder": "B12", "binding": "binds"}
{"binder": "B13", "binding": "binds"}
{"binder": "B11", "binding": "binds"}
